Test results as given in the supplement of paper PMC6078165.
The reference is the same well before dosing, and untreated signal decays as well.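 Fibroblast labels denote human fibroblasts, mainly primary ones from uterus (C12385, HUF), lung (H6013), bone (Hs27A), adrenal (HADF) and skin (WS1), plus mammary HMF and breast cancer-associated Hs343T. Cancer cells are basal-like or mesenchymal-like triple-negative breast cancer lines. A hit is a response shift exceeding 3x replicate standard deviation. The tissue of the other fibroblasts is not given here.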

System: Hs578T
Assay: relative JC-1 red fluorescence (viability) vs pre-drug, coculture with fibroblast (fraction); higher = more viable cancer cells
Experimental: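 JC-1 labelled TNBC cells cocultured 1:1 (1,500 cells each) with CellTrace Violet stained primary or stromal fibroblasts in 384-well plates in FluoroBrite medium, treated with one of 42 anticancer drugs at 0.1, 1, 10 or 100 uM. JC-1 red fluorescence (mitochondrial integrity in cancer cells only) was read by plate reader every 8 h for 72 h. Values are normalised to each well's pre-drug value. The stock of one drug was tenfold lower, so its dose labels may be too high.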

O=C(CCCCCCC(=O)Nc1ccccc1)NO [Vorinostat]
relative JC-1 red fluorescence
Settings	8 h	16 h	24 h	32 h	40 h	48 h	56 h	64 h	72 h
0.1 µM	0.877	0.777	0.711	0.671	0.606	0.562	0.53	0.49	0.472
1 µM	0.9305	0.815	0.715	0.647	0.578	0.529	0.499	0.465	0.451

relative JC-1 red fluorescence
Settings	8 h	16 h	24 h	32 h	40 h	48 h	56 h	64 h	72 h
0.1 µM, coculture fibroblast: C12385	0.829	0.698	0.647	0.554	0.49	0.457	0.4279	0.415	0.4081
0.1 µM, coculture fibroblast: H6013	0.8079	0.767	0.714	0.6772	0.6504	0.6456	0.628	0.6272	0.604
0.1 µM, coculture fibroblast: H6019	0.764	0.6672	0.603	0.5064	0.453	0.41	0.372	0.345	0.323
0.1 µM, coculture fibroblast: H6076	0.884	0.8098	0.74055	0.715	0.6658	0.66	0.634	0.621	0.62
0.1 µM, coculture fibroblast: H6231	0.943	0.847	0.76	0.709	0.641	0.612	0.562	0.537	0.514
0.1 µM, coculture fibroblast: HADF	0.882	0.773	0.726	0.688	0.654	0.633	0.608	0.601	0.577
0.1 µM, coculture fibroblast: HCFa	0.847	0.762	0.694	0.629	0.577	0.545	0.504	0.487	0.452
0.1 µM, coculture fibroblast: HCPF	0.921	0.851	0.793	0.743	0.684	0.662	0.629	0.587	0.563
0.1 µM, coculture fibroblast: HHSteC	0.8522	0.726	0.6575	0.596	0.532	0.492	0.457	0.43	0.396
0.1 µM, coculture fibroblast: HMF	0.8831	0.787	0.731	0.705	0.6422	0.62	0.589	0.567	0.553
0.1 µM, coculture fibroblast: HPFa	0.937	0.833	0.77	0.715	0.669	0.635	0.5977	0.579	0.537
0.1 µM, coculture fibroblast: HUF	0.8461	0.693	0.648	0.5427	0.485	0.457	0.432	0.43	0.426
0.1 µM, coculture fibroblast: Hs27A	0.894	0.799	0.751	0.704	0.642	0.607	0.564	0.551	0.503
0.1 µM, coculture fibroblast: Hs343T	0.913	0.79	0.7109	0.6729	0.592	0.5506	0.503	0.479	0.4722
0.1 µM, coculture fibroblast: WS1	0.824	0.697	0.6187	0.534	0.471	0.44	0.402	0.391	0.385
1 µM, coculture fibroblast: C12385	0.8285	0.7414	0.648	0.545	0.471	0.44	0.418	0.415	0.415
1 µM, coculture fibroblast: H6013	0.901	0.857	0.813	0.797	0.769	0.768	0.759	0.774	0.759
1 µM, coculture fibroblast: H6019	0.7676	0.648	0.583	0.49	0.462	0.454	0.429	0.427	0.413
1 µM, coculture fibroblast: H6076	0.948	0.862	0.76	0.722	0.662	0.645	0.627	0.6192	0.6212
1 µM, coculture fibroblast: H6231	0.93	0.88	0.754	0.718	0.669	0.636	0.588	0.562	0.545
1 µM, coculture fibroblast: HADF	0.872	0.788	0.718	0.67	0.63	0.61	0.589	0.586	0.571
1 µM, coculture fibroblast: HCFa	0.878	0.843	0.77	0.721	0.669	0.653	0.623	0.61	0.571
1 µM, coculture fibroblast: HCPF	0.932	0.838	0.7372	0.69	0.615	0.59	0.573	0.563	0.549
1 µM, coculture fibroblast: HHSteC	0.903	0.838	0.767	0.729	0.678	0.655	0.635	0.622	0.586
1 µM, coculture fibroblast: HMF	0.8831	0.788	0.6817	0.652	0.582	0.537	0.508	0.496	0.49
1 µM, coculture fibroblast: HPFa	0.91	0.853	0.746	0.68	0.66	0.639	0.614	0.601	0.575
1 µM, coculture fibroblast: HUF	0.8646	0.7566	0.6513	0.5315	0.4632	0.427	0.395	0.385	0.378
1 µM, coculture fibroblast: Hs27A	0.87	0.811	0.756	0.682	0.622	0.603	0.576	0.572	0.536
1 µM, coculture fibroblast: Hs343T	0.8906	0.7783	0.6747	0.653	0.57454	0.5433	0.51	0.498	0.496
1 µM, coculture fibroblast: WS1	0.8169	0.693	0.641	0.531	0.466	0.45	0.429	0.439	–
